# From PMC3316588
# Amino acid sequences for entries named in this document (tags omitted). Residues count along the entry.
# UniProt P62137: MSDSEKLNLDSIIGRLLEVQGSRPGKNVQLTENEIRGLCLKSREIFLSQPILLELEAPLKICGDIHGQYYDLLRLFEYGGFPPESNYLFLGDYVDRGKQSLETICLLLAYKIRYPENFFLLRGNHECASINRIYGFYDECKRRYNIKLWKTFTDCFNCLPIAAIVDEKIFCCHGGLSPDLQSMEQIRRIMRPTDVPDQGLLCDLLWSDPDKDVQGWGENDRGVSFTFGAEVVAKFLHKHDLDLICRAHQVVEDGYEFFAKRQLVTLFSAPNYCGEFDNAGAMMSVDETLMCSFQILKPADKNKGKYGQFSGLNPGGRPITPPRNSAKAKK
# UniProt Q01097, residues 27-1482: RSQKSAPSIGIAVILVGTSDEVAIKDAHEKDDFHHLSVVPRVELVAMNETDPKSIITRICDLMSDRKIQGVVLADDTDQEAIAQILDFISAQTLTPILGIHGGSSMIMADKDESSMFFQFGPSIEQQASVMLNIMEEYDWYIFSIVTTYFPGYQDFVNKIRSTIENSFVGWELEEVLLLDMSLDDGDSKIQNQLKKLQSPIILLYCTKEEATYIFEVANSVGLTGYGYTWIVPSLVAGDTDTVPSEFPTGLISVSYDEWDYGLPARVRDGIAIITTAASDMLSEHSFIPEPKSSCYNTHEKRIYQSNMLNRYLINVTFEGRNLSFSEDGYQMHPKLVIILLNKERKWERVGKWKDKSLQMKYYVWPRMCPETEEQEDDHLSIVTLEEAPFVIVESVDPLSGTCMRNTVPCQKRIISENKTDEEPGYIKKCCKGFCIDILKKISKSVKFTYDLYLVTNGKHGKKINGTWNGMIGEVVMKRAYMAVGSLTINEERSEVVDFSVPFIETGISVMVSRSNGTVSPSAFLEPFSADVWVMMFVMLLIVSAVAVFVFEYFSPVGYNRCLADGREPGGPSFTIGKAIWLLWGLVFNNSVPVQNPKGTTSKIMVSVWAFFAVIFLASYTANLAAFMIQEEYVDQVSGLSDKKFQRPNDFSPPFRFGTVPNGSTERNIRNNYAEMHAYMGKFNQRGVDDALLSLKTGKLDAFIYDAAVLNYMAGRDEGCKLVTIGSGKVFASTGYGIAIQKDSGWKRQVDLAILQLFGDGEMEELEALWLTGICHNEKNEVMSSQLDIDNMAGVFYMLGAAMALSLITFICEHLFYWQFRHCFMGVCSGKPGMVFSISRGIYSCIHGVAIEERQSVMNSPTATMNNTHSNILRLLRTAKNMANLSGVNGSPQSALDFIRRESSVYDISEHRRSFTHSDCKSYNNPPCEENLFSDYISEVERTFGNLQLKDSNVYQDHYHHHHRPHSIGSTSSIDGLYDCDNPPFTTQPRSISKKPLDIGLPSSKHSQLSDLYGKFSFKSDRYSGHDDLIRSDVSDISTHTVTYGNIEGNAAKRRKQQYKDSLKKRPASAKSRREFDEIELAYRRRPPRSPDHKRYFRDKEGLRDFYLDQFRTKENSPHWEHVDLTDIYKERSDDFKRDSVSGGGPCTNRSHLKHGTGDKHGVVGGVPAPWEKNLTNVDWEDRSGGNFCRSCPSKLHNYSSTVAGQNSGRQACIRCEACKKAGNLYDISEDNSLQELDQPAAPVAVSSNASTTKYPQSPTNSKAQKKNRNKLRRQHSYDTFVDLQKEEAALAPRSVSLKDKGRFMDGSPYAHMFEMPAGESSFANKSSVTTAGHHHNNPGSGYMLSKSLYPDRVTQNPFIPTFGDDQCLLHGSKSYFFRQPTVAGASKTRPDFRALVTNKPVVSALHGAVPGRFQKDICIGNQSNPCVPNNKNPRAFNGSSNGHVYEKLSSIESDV
# Results are given in words; binding and its absence hold for the method and conditions named. In cells and extracts the contact can be indirect. Some binding calls cover weakened binding; strength is not graded here.
# Target: protein phosphatase-1 alpha (PP1α) (mouse (endogenous in hippocampus)) (UniProt P62137)
# Test: co-IP; whole mouse hippocampus lysate (50 mM Tris, 120 mM NaCl, 0.5% NP-40); IP with rabbit polyclonal anti-PP1α, pansorbin-protein A beads, 4°C; washed in high-salt buffer (500 mM NaCl, 1% NP-40); blots for NR2B and NR1; rabbit IgG as control
substance,measurement,value
NMDA receptor subunit NR2B (from UniProt Q01097 27-1482),binding,binds
